Screening data, single-dose tests

Toxoplasma: 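Assay of Toxoplasma gondii numbers, read through their beta-galactosidase reporter with a colour substrate. Tested at 10 µM. The record gives no direction; the compounds picked for IC50 retests had high values, so higher reads as fewer parasites. About 67,000 compounds were tested under these conditions; 0.38% (about 260) showed 50% or more at least once.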
Leishmania in macrophages: 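Cell assay of Leishmania donovani living inside macrophages; the read-out is not stated. Compounds at 30 µM. The record gives no direction; compounds that gave an IC50 in retests scored well above the rest, so higher reads as stronger inhibition. Size under these conditions: about 69,000 compounds, about 1,000 of them at 50% or above in at least one test.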

The filed quantity is “Percent Effect” (%). How 0% and 100% were set is not recorded. Most values in the screen are low, and negative values occur. Compounds were drawn at random from those tested, without regard to their results. Two or more numbers in one place are separate tests of the same structure; such repeats can differ widely.

{"structure": "CCN1CCN(C(=O)c2cnc(Cc3c(Cl)cccc3Cl)nc2O)CC1", "Toxoplasma": 5.385, "Leishmania in macrophages": 12.53}
{"structure": "CCS(=O)(=O)CCN1CCC(N(C)Cc2noc(C(C)C)n2)C1", "stereo": "centres undefined", "Toxoplasma": -2.67, "Leishmania in macrophages": -7.621}
{"structure": "O=C(O)C(F)(F)F.O=C(c1ccccc1F)N1CCCn2c(CN3CCCCC3)nnc2C1", "Toxoplasma": -3.187, "Leishmania in macrophages": 41.06}
{"structure": "O=C(O)C(F)(F)F.[H][C@]12CCN(c3ccccn3)C[C@@]1([H])OCCN(C(=O)c1ccco1)C2", "Toxoplasma": 13.23, "Leishmania in macrophages": "8.952 and 2.398"}
{"structure": "CN(C)[C@@H]1CCN(c2ncc(F)cn2)[C@H]1Cc1ccccc1.O=C(O)C(F)(F)F.O=C(O)C(F)(F)F", "Toxoplasma": 2.833, "Leishmania in macrophages": 19.53}
{"structure": "Cc1oc(C)c(C(=O)NCc2ccccn2)c1C", "Toxoplasma": -16.8, "Leishmania in macrophages": -10.7}
{"structure": "CC(c1nccs1)n1cc(-c2cc(CN3CCCCC3)cs2)nn1", "stereo": "centres undefined", "Toxoplasma": -3.659, "Leishmania in macrophages": 24.41}
{"structure": "CCC(C)(CC(=O)O)NC(=O)Cc1ccccc1F", "stereo": "centres undefined", "Toxoplasma": 1.942, "Leishmania in macrophages": -3.741}
{"structure": "Cn1nnc2c(N3CC(C(=O)NCc4ccccc4F)C3)ncnc21", "Toxoplasma": -3.017, "Leishmania in macrophages": -12.53}
{"structure": "O=C(NCCCN1CCOCC1)c1nc(-c2ccc3cc[nH]c3c2)no1", "Toxoplasma": 0.5933, "Leishmania in macrophages": 11}
{"structure": "CC(C)CN(Cc1nc2c(cnn2C)c(=O)[nH]1)C(C)C", "Toxoplasma": -5.338, "Leishmania in macrophages": 17.91}
{"structure": "CN(C)c1ccccc1C(=O)N1C[C@@H](CN2CCC(O)CC2)[C@@H](CO)C1", "Toxoplasma": -8.029, "Leishmania in macrophages": 12.38}
{"structure": "[H][C@@]12C[C@H](C(=O)Nc3cccnc3)[C@@]([H])(CN(S(=O)(=O)CC(C)C)C1)O2", "Toxoplasma": 2.972, "Leishmania in macrophages": -18.98}
{"structure": "Cc1nn(C)c(C)c1C(=O)N1CCN(c2ccncc2Cl)CC1", "Toxoplasma": 10.5, "Leishmania in macrophages": -9.533}
{"structure": "Cc1nc[nH]c1-c1nccn1CCN1CCOC1=O", "Toxoplasma": -3.573, "Leishmania in macrophages": 3.243}
{"structure": "Cc1nc(C2CCCN2C(=O)Cc2ccc(F)cc2)ncc1C(N)=O", "stereo": "centres undefined", "Toxoplasma": -31.39, "Leishmania in macrophages": -12.07}
{"structure": "O=C(Cn1cc(I)cn1)N1CCCC1", "Toxoplasma": 8.129, "Leishmania in macrophages": 12.5}
{"structure": "CNc1nc(CNC(=O)Nc2cccc(OC)c2)cs1", "Toxoplasma": 16.52, "Leishmania in macrophages": -14.9}
{"structure": "O=C(O)C(F)(F)F.[H][C@@]12CCN(Cc3cnn(C)c3)[C@]1([H])CC[C@@H](C(=O)Nc1cnccn1)O2", "Toxoplasma": -22.91, "Leishmania in macrophages": 5.592}
{"structure": "Cc1ccc(CN(CCCN2CCOCC2)Cc2cncn2C)o1.O=C(O)CC(O)(CC(=O)O)C(=O)O", "Toxoplasma": 5.21, "Leishmania in macrophages": 11.45}
{"structure": "NC(=O)N1CC[C@H](O)[C@@H]1Cc1cccnc1.O=C(O)C(F)(F)F", "Toxoplasma": -2.528, "Leishmania in macrophages": -31.9}
{"structure": "O=C(C1CC1)N1CCCC(C2=Nc3ccccc3S(=O)(=O)N2)C1", "stereo": "centres undefined", "Toxoplasma": 3.391, "Leishmania in macrophages": 35.03}
{"structure": "Cn1c(=O)n(C)c2cc(NS(=O)(=O)Cc3ccccc3)ccc21", "Leishmania in macrophages": 15.37}
{"structure": "O=C(NCCn1cccc1)C1CCCOC1", "stereo": "centres undefined", "Toxoplasma": -14.15, "Leishmania in macrophages": 13.32}
{"structure": "CNC(=O)c1cn[nH]c1C1(C)CCCN(Cc2nccn2C(C)C)C1", "stereo": "centres undefined", "Toxoplasma": 11.27, "Leishmania in macrophages": "8.725 and 18.56"}
{"structure": "O=C(CCc1cccnc1)N1CCC(c2cnccn2)CC1", "Toxoplasma": -36.1, "Leishmania in macrophages": "10.99 and 8.039"}
{"structure": "O=C(CSC1CCCC1)N1CCN(C(=O)C2CC2c2cccs2)CC1", "stereo": "centres undefined", "Toxoplasma": 20.7, "Leishmania in macrophages": -15.21}
{"structure": "O=C(O)C(F)(F)F.c1coc(CNc2ncc3c(n2)C2(CCNC2)COC3)c1", "stereo": "centres undefined", "Toxoplasma": -17.23, "Leishmania in macrophages": 10.31}
{"structure": "COCC(O)CN1CCC(NC(=O)c2cscc2C)CC1", "stereo": "centres undefined", "Toxoplasma": -0.2157, "Leishmania in macrophages": 34.7}
{"structure": "CN(C)c1cncc(C2CCN(CC3(O)CCCCC3)CC2)n1", "Toxoplasma": -0.2919, "Leishmania in macrophages": 19.35}
{"structure": "COc1ccc(C2CC(=O)NCc3nc(N(C)C)sc32)c(O)c1", "stereo": "centres undefined", "Toxoplasma": 1.21, "Leishmania in macrophages": 16.16}
{"structure": "CN(Cc1cn(C2CCNCC2)nn1)CC1CCCO1", "stereo": "centres undefined", "Toxoplasma": 4.303, "Leishmania in macrophages": 7.398}
{"structure": "O=c1cc(CN(CCO)C2CC2)nc2ccc(Br)cn12", "Toxoplasma": -0.7015, "Leishmania in macrophages": 30.05}
{"structure": "COc1cc(C(=O)N2CCCC(CNS(C)(=O)=O)C2)ccc1C", "stereo": "centres undefined", "Toxoplasma": 0.1654, "Leishmania in macrophages": 6.086}
{"structure": "CN(C)S(=O)(=O)N1CCC(Oc2ccccn2)CC1", "Toxoplasma": -1.22, "Leishmania in macrophages": 3.872}
{"structure": "CCN1CCC(=O)N(C)Cc2cc(F)ccc21", "Toxoplasma": -27.72, "Leishmania in macrophages": 1.191}

Some entries from above, unchanged:

For CCS(=O)(=O)CCN1CCC(N(C)Cc2noc(C(C)C)n2)C1 (centres undefined) the result was Toxoplasma: -2.67%; Leishmania in macrophages: -7.621%.
For COc1ccc(C2CC(=O)NCc3nc(N(C)C)sc32)c(O)c1 (centres undefined) the result was Toxoplasma: 1.21%; Leishmania in macrophages: 16.16%.

Measurements from “University of Dundee, Small-Polar-MMV Screening Library” (2021), ChEMBL document CHEMBL3988442.